In article PMC6443913:
Where two headings read alike, the source gives them in different places. No constants are given. Whether binding was seen depends on the method and setting. Binding seen in cells or lysates may run through a third protein. Some entries that bind do so weakly or less than the wild type.

Sequences of proteins named here, by UniProt entry; tags and fusion partners are left off.
UniProt Q13562: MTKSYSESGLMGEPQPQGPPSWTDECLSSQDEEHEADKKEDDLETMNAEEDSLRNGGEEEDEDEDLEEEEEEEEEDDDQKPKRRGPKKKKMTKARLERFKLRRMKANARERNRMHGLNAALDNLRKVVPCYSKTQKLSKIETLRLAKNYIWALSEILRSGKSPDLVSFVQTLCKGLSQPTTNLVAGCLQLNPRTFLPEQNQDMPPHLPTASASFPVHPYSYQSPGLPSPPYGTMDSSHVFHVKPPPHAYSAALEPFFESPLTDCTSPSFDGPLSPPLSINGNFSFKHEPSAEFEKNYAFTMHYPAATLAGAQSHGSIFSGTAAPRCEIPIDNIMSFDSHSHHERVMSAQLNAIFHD
UniProt P03372: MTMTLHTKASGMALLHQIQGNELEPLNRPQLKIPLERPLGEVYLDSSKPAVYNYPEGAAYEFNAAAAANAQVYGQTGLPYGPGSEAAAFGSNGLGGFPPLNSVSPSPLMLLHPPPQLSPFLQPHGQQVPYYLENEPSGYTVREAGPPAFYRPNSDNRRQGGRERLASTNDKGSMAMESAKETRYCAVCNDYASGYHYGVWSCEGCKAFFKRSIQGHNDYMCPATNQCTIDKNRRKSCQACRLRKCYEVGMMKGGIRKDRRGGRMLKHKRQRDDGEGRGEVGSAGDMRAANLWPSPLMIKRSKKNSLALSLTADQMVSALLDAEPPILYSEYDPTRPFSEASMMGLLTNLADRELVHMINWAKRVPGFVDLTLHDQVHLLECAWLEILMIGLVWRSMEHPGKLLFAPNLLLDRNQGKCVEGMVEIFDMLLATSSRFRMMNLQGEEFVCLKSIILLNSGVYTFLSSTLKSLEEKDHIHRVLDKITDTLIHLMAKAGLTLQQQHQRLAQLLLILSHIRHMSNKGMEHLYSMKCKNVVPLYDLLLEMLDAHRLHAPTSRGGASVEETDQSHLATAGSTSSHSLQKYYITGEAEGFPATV

Legend:
Assay in all cases: pull-down; matrix-bound GST fusion protein incubated with 35S-labelled in vitro translated protein, with or without E2; bound proteins on 10% SDS-PAGE, visualised with a BAS 1500; only the target purified
[1] = target: GST-BETA2 (human) (UniProt Q13562)
[2] = target: GST-ERα (fusion protein between glutathione S-transferase and ERα) (human) (UniProt P03372)
[3] = target: GST-BETA2 (human) (UniProt Q13562); remark: listed apart in the source

“35S-methionine-labeled ERα (from UniProt P03372 1-595) (receptor)” was tested, and the binding [1] was “binds”.

In the case of “35S-methionine-labeled, in vitro-translated BETA2 (from UniProt Q13562 1-356)”, the binding [2] is reported as “binds”.

B1: 35S-labeled E47 (protein, UniProt P15923-2 1-651)
chain: MNQPQRMAPVGTDKELSDLLDFSMMFPLPVTNGKGRPASLAGAQFGGSGLEDRPSSGSWGSGDQSSSSFDPSRTFSEGTHFTESHSSLSSSTFLGPGLGGKSGERGAYASFGRDAGVGGLTQAGFLSGELALNSPGPLSPSGMKGTSQYYPSYSGSSRRRAADGSLDTQPKKVRKVPPGLPSSVYPPSSGEDYGRDATAYPSAKTPSSTYPAPFYVADGSLHPSAELWSPPGQAGFGPMLGGGSSPLPLPPGSGPVGSSGSSSTFGGLHQHERMGYQLHGAEVNGGLPSASSFSSAPGATYGGVSSHTPPVSGADSLLGSRGTTAGSSGDALGKALASIYSPDHSSNNFSSSPSTPVGSPQGLAGTSQWPRAGAPGALSPSYDGGLHGLQSKIEDHLDEAIHVLRSHAVGTAGDMHTLLPGHGALASGFTGPMSLGGRHAGLVGGSHPEDGLAGSTSLMHNHAALPSQPGTLPDLSRPPDSYSGLGRAGATAAASEIKREEKEDEENTSAADHSEEEKKELKAPRARTSSTDEVLSLEEKDLRDRERRMANNARERVRVRDINEAFRELGRMCQMHLKSDKAQTKLLILQQAVQVILGLEQQVRERNLNPKAACLKRREEEKVSGVVGDPQMVLSAPHPGLSEAHNPAGHM
modifications: 35S labelled
With B1 the binding [3] was “binds”.
